Data on 2 molecules can be found in patent US4935419A, “Novel 1-piperazinecarboxamide derivatives” (priority 1983, dated 1990).

Assay [1] relates to male NMRI mice (isolation induced aggressive behaviour). Put plainly: Isolation induced aggressive behaviour test. It counts as in vivo. The conditions noted are these: Mus musculus, sc, 0.5 h, read-out: ED50, isolation induced aggressive behaviour test. From the text:
Test 1: Isolation induced aggressive behaviour test
Male mice subjected to prolonged isolation develop aggressive behaviour against each other when paired (Yen, C. Y. et al., Arch. Int. Pharmacodyn. 123, 179, (1959): Valzelli, L., Adv. Pharmacol. 5, 79 (1967)). All clinically used neuroleptics and antidepressants studied in this test inhibit this aggressive behaviour although their activity may differ. […]. The clinical correlation of this test indicates tranquillizing and anxiolytic activities as well as antiaggressive properties as such (Duncan, R. L. et al., J Med. Chem. 13, 1 (1970)).
This type of aggression is interesting because it is known that this kind of emotional behaviour might be located in limbic structures in the brain (MacLean, P.D., Psychosom. Med. 11, 338 (1949)).
Every week male NMRI mice, weighing 20-22 g, were isolated in Makrolon cages for three weeks with diet and water ad libitum. A piece of cardboard was placed between the cages to prevent visual contact.
To test aggressiveness the mice were paired in a neutral area, a beaker (14 cm high and diameter 14 cm). A pair is considered aggressive if both the animals show clear signs of fighting within 5 minutes. This fighting is characterized by biting and vocalization. […] Animals showing no aggression are discarded. […]. The test substance is administered s.c. (0.2-0.4 ml/20 g). […]

The subject of assay [2] is female NMRI mice (writhing behaviour). The experiment in a line: Writhing test (acetic acid). The format is in vivo. The conditions noted are these: Mus musculus, sc, read-out: ED50, writhing test. As for the experimental part:
The writhing test is a frequently used test of analgetic properties (Witkin, L. B. et al., J. Pharmacol. Exp. Ther. 133, 400 (1961)). If acetic acid (0.5%, 15 ml/kg) is injected intraperitoneally in mice (NMRI) they will without exception develop a writhing behaviour characterized by stretching their hind legs. The drugs to be tested were administered subcutaneously to 6 female mice at each dose 20 minutes before the injection of the acetic acid. After 10 minutes the behaviour of the mice was studied in 5 minutes. The ED50 -value is the dose blocking the writhing behaviour in 50% of the animals during the 5 minutes study period. [drawing 12]

One may read the ED50 as the dose that gives a 50% effect, or the effect in half of the subjects. As for `CN1C(=O)CN=C(c2ccccc2)c2cc(Cl)ccc21` [Diazepam], the median effective dose (ED50) in assay [1] came to 6.7 mg/kg. As for `CN1CC[C@]23c4c5ccc(O)c4O[C@H]2[C@@H](O)C=C[C@H]3[C@H]1C5` [Morphine], the 50% effective dose (ED50) in assay [2] was 1.6 mg/kg.
